Measurements from PubChem BioAssay AID662 (National Center for Advancing Translational Sciences (NCATS), 2007).
This is one part of the list. The main result of the screen is listed elsewhere. These columns were measured beside it and carry no call. The list favours compounds with an active or inconclusive main result. The note in brackets gives the kind of curve behind each potency; many fits are weak.

assay: Cell signaling CRE-BLA (Fsk stim); details: CHO CRE-bla reporter (cAMP response element driving beta-lactamase), forskolin EC10, beta-lactamase ratio; measured here: 460 nm blue channel
In short: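 Modulation of forskolin-driven signalling is measured in CHO cells carrying a CRE-controlled beta-lactamase reporter. Cells are stimulated with EC10 NKH 477 in the presence of titrated compound for 3 h at 37 °C, then loaded with CCF4 for 2 h at room temperature.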

SMILES | AC50
CCOC(=O)N1CCN(c2ccc(C(=O)c3ccccc3)cc2F)CC1 | 0.398 µM [rising, full curve]
O=C(CN1CCN(c2nc(-c3ccccc3)cs2)CC1)NCc1ccc2c(c1)OCO2 | 25.1 µM [falling, single point]
Cc1ccc(S(=O)(=O)N2CCN(C(=O)COC(=O)COc3ccccc3)CC2)cc1 | 10 µM [rising, partial curve]
Cc1nc(NCc2ccco2)c2oc3ccccc3c2n1 | 6.31 µM [rising, partial curve]
Cn1c(=O)[nH]c(=O)c2c1nc(Sc1ncccn1)n2CCCc1ccccc1 | 25.1 µM [falling, single point]
Fc1ccccc1N1CCN(C2CCN(Cc3c[nH]c4ccccc34)CC2)CC1 | 2.51 µM [falling, partial curve, poor fit]
CN1C=CC=C/C1=C1\SC(=S)N(C2CCCCC2)C1=O | 0.794 µM [falling, full curve, poor fit]
N#Cc1ccccc1-c1nc(NCCN2CCOCC2)c2ccccc2n1 | 10 µM [rising, partial curve]
CC1(C)NC(C)(C)C(O)(C(N)=O)C1=O (centres undefined) | 0.158 µM [falling, full curve]
CCN1C(=O)c2cccc3cccc1c23 | 10 µM [rising, partial curve]
Cc1cc2cc(CCNC(=O)c3ccc(Br)o3)c(=O)[nH]c2cc1C | 3.16 µM [rising, full curve]
CCN1CCN(c2nc3ccccc3nc2C(C#N)C(=O)OCc2ccccc2)CC1 (centres undefined) | 12.6 µM [rising, single point]
COc1cc2c(C#N)c(N3CCc4ccccc4C3)nc(N)c2c(N)n1 | 1 µM [rising, full curve]
CCn1c(CC(=O)Nc2cccc(OC)c2)nnc1SCC(=O)Nc1nccs1 | 0.00316 µM [falling, full curve, poor fit]
CCOc1ccc(Cc2nc(-c3nonc3N)no2)cc1OCC | 15.8 µM [rising, partial curve]
CCOC(=O)CSc1nnc(NCC(=O)OC(C)C)c(=O)[nH]1 | 12.6 µM [falling, partial curve]
CCOC(=O)c1cnc(-c2cccc(OC)c2)[nH]c1=O | 0.631 µM [falling, full curve]
CCOc1cc2[nH]c(=O)n(CCc3ccc(OC)c(OC)c3)c(=O)c2cc1OCC | 0.126 µM [falling, full curve, poor fit]
Cc1ccc(-n2ncc3c(=O)n(CC(=O)N4CCCCCC4)cnc32)cc1 | 25.1 µM [rising, partial curve]
CCOC(=O)C1=C(C)OC(N)=C(C#N)C1c1c(C)nn(-c2ccccc2)c1Cl (centres undefined) | 0.126 µM [falling, single point]
COCCn1c(N)c(C(=O)OCc2ccccc2)c2nc3ccccc3nc21 | 12.6 µM [rising, partial curve]
O=C(CSC1=NCCS1)N1CCCC1 | 3.98 µM [falling, single point]
CN(C)c1ccc(-c2nc(NCCN3CCOCC3)c3ccccc3n2)cc1 | 7.94 µM [rising, partial curve]

SMILES | AC50
COc1ccccc1CNc1cc(-c2ccccc2OC)ncn1 | 3.16 µM [falling, single point]
CCCCCCCCOc1ccc(C(=O)O)cc1 | 15.8 µM [rising, partial curve, poor fit]
CCOC(=O)c1cc(C)sc1NC(=O)C1CCC1 | 10 µM [rising, partial curve]
CCSc1nnc2c(n1)OC1(CCCC1)Nc1ccccc1-2 | 12.6 µM [rising, single point]
CCCCCNC(=O)C(C#N)c1nc2ccccc2nc1N1CCCC1 (centres undefined) | 12.6 µM [rising, single point]
Cc1ccc(N2C(=O)CSC2c2cccs2)cc1 (centres undefined) | 5.01 µM [falling, partial curve]
CCOC(=O)c1cc2sc(C)cc2n1CC(=O)N1CCN(C(=O)c2ccco2)CC1 | 0.126 µM [falling, full curve, poor fit]
N#CCCn1c(=O)c(-c2ccc(F)cc2)nc2cnc(N3CCOCC3)nc21 | 1.26 µM [rising, full curve]
COc1cc2[nH]c(=S)nc(NCC3CCCO3)c2cc1OC (centres undefined) | 12.6 µM [rising, single point]
N#Cc1cccc(-c2nccc(NCc3ccccc3)n2)c1 | 25.1 µM [rising, single point]
Cc1ccc(N2C(=O)CSC2c2cccnc2)cc1F (centres undefined) | 12.6 µM [falling, partial curve, poor fit]
CCCCC#Cc1nc(NC)c2ncn([C@@H]3O[C@@H](CO)[C@H](O)[C@H]3O)c2n1 | 15.8 µM [rising, partial curve]
c1ccc(N2CCN(c3ncnc4c3oc3ccccc34)CC2)cc1 | 2 µM [rising, partial curve]
CCC(C)NC(=O)c1c(N)n(/N=C/c2cccnc2)c2nc3ccccc3nc12 (centres undefined) | 3.16 µM [rising, partial curve]
COc1ccc(-c2nsc(SCC(=O)Nc3cc(C)on3)n2)cc1 | 0.00398 µM [falling, full curve, poor fit]
COc1ccc2c(C(F)(F)F)cc(=O)oc2c1C | 25.1 µM [rising, single point]
Cc1[nH]c2ccccc2c1CCC(N)=O | 0.2 µM [rising, partial curve, poor fit]
Cc1ccc2c(c1)cc(CN(Cc1ccccc1)C(=O)N(C)C)c1nnnn12 | 0.00316 µM [falling, full curve, poor fit]
CCCc1nc2oc3c(NCc4ccccn4)ncnc3c2c2c1COC(C)(C)C2 | 1 µM [rising, full curve]
CCc1cccc2c(-c3ccccc3)c3c(nc12)OCC3 | 6.31 µM [rising, partial curve]
O=C(CC1CCS(=O)(=O)C1)Nc1ccc[nH]c1=O (centres undefined) | 12.6 µM [falling, partial curve, poor fit]
Cc1ccc2c(c1)nc(NCCO)n2C | 31.6 µM [falling, single point]
CC(C)C1N=C2c3ccccc3N=C(SCc3cc(=O)n4ccccc4n3)N2C1=O (centres undefined) | 0.631 µM [rising, full curve]

SMILES | AC50
O=c1[nH]c2ccccc2nc1C(F)(F)C(F)F | 1.58 µM [rising, partial curve]
CCOC(=O)c1[nH]c2ccc(F)cc2c1NC(=O)C(C)N1CCc2cc(OC)c(OC)cc2C1 (centres undefined) | 12.6 µM [rising, single point]
c1c2c(cc3sc(N4CCOCC4)nc13)OCCO2 | 25.1 µM [rising, single point]
CCOP(=O)(c1ccc(N(C)C)cc1)C(O)c1cc(OC)c(OC)c(OC)c1 (centres undefined) | 0.0794 µM [falling, full curve, poor fit]
CCOC(=O)/C(C#N)=C1/C=Nc2ccccc2N1 | 12.6 µM [rising, partial curve]
CC1(C)CC(=O)N(CC(=O)O)c2ccccc2S1 | 25.1 µM [falling, single point]
CCn1c(=O)cc(OCC(=O)N(C)c2ccccc2F)c2ccccc21 | 10 µM [rising, single point]
CC1C2CC(C(S(=O)(=O)N3CCOCC3)C2=O)C1(C)C (centres undefined) | 0.126 µM [falling, full curve, poor fit]
COCCn1c(=O)c(CCc2ccccc2)nc2cnc(Nc3cccc(OC)c3)nc21 | 12.6 µM [rising, partial curve]
NCCNS(=O)(=O)c1cccc2c(Cl)cccc12 | 31.6 µM [falling, single point]
CC(c1nnc(Sc2nnnn2-c2ccccc2)n1-c1ccc(F)cc1)N(C)C (centres undefined) | 3.16 µM [falling, single point]
O=C1c2ccccc2C(=O)N1CCCCN(C(=O)c1ccco1)c1ccc(Cl)cc1 | 10 µM [falling, single point]
CCCCCOc1ccc(C2C(C(C)=O)=C(C)Nc3ncnn32)cc1OC (centres undefined) | 3.16 µM [rising, full curve]
COc1ccc2[nH]cc(CCNc3cc(-c4ccc5c(c4)OCO5)ncn3)c2c1 | 2 µM [rising, full curve]
COc1ccc(-c2csc(Cc3nnc4n3CCCCC4)n2)cc1OC | 5.01 µM [rising, partial curve]
COc1ccc(CCNC(=O)CSc2ncnc3c2oc2ccccc23)cc1OC | 12.6 µM [rising, partial curve]
O=C(Cc1ccccc1)Nc1ccccc1CO | 0.0251 µM [falling, full curve, poor fit]
O=C(Nc1ccccc1-c1nnn(CC(=O)N2CCN(c3ccccc3)CC2)n1)c1cccs1 | 0.00316 µM [falling, full curve, poor fit]
Cc1nc(COC(=O)c2c(C)nn(-c3ccccc3)c2C)cs1 | 7.94 µM [rising, partial curve]
COC(=O)C1=C(C)NC(C)=C([N+](=O)[O-])[C@@H]1c1ccccc1C(F)(F)F | 20 µM [falling, partial curve, poor fit]
CCOC(=O)N1CCN(C(=O)Nc2ccc(Cl)cc2Cl)CC1 | 25.1 µM [falling, single point]
O=C1c2ccc(Oc3ccc4c(c3)C(=O)N(CCCO)C4=O)cc2C(=O)N1CCCO | 5.01 µM [rising, partial curve]
CCOC(=O)N1CCN(C(=O)C2CCCN(c3ncnc4c3sc3cccc(F)c34)C2)CC1 (centres undefined) | 10 µM [rising, single point]

4 entries drawn at random from those above:
SMILES | AC50
O=c1[nH]c2ccccc2nc1C(F)(F)C(F)F | 1.58 µM [rising, partial curve]
O=C(Nc1ccccc1-c1nnn(CC(=O)N2CCN(c3ccccc3)CC2)n1)c1cccs1 | 0.00316 µM [falling, full curve, poor fit]
CC1(C)CC(=O)N(CC(=O)O)c2ccccc2S1 | 25.1 µM [falling, single point]
Cc1nc(COC(=O)c2c(C)nn(-c3ccccc3)c2C)cs1 | 7.94 µM [rising, partial curve]
